Data taken from PMC12196705.
No constants are given. Whether binding was seen depends on the method and setting. In cells and extracts the contact can be indirect. Some binding calls cover weakened binding; strength is not graded here.

Protein sequences, listed by entry. Tags and fused reporters are not part of them.
UniProt Q00987: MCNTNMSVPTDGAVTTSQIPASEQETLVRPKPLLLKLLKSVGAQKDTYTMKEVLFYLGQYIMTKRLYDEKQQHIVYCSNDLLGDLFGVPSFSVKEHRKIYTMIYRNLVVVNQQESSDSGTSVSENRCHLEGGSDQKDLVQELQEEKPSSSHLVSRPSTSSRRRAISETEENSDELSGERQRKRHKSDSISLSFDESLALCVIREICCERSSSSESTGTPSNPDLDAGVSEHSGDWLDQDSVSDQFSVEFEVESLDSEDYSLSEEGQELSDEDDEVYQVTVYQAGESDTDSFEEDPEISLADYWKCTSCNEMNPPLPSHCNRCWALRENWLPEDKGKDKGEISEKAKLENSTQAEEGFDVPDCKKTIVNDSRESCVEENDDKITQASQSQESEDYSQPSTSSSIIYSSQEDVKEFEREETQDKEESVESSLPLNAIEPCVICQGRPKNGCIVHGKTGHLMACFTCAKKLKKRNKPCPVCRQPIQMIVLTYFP

Biological target: Mdm2 (human (endogenous in H1299)) (UniProt Q00987)
Experiment: co-IP; endogenous Mdm2 immunoprecipitated from H1299 whole-cell lysate (1 mg protein, NP-40 lysis buffer, cells treated with MG132 for 4 h) with a primary antibody mix against Mdm2 or IgG control, overnight at 4 °C, Protein G agarose beads; immunoblot for HMCS1_HUMAN

binding: binds
B1: hydroxymethylglutaryl-CoA synthase (HMCS1_HUMAN) (protein, UniProt Q01581 1-520)
chain: MPGSLPLNAEACWPKDVGIVALEIYFPSQYVDQAELEKYDGVDAGKYTIGLGQAKMGFCTDREDINSLCMTVVQNLMERNNLSYDCIGRLEVGTETIIDKSKSVKTNLMQLFEESGNTDIEGIDTTNACYGGTAAVFNAVNWIESSSWDGRYALVVAGDIAVYATGNARPTGGVGAVALLIGPNAPLIFERGLRGTHMQHAYDFYKPDMLSEYPIVDGKLSIQCYLSALDRCYSVYCKKIHAQWQKEGNDKDFTLNDFGFMIFHSPYCKLVQKSLARMLLNDFLNDQNRDKNSIYSGLEAFGDVKLEDTYFDRDVEKAFMKASSELFSQKTKASLLVSNQNGNMYTSSVYGSLASVLAQYSPQQLAGKRIGVFSYGSGLAATLYSLKVTQDATPGSALDKITASLCDLKSRLDSRTGVAPDVFAENMKLREDTHHLVNYIPQGSIDSLFEGTWYLVRVDEKHRRTYARRPTPNDDTLDEGVGLVHSNIATEHIPSPAKKVPRLPATAAEPEAAVISNGEH
